Reference: PubChem BioAssay AID504648 (National Center for Advancing Translational Sciences (NCATS), 2011)
Among all 390,000 compounds or so, about 610 (0.16%) were called active. Inconclusive results, whose numbers are uncertain, are shown with a selection of clear calls. Calls come from the whole dose curve; as a rule, active = well fitted inhibition curve with a large enough effect; inconclusive = small, poorly fitted or top-dose-only effect, or effect the other way, or another doubt; inactive = no such curve, though single readings can be large or run the other way. Potencies of inconclusive entries are doubtful fits and often do not repeat.

assay: Nrf2 qHTS screen for inhibitors: counterscreen for cytotoxicity; settings: A549 ARE-Fluc cells, CellTiter-Fluor viability, 18-24 h; activity change, negative = cytotoxicity: at 46 µM (top of the series)
Method in brief: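 A549 ARE_Fluc cells in 5% FBS OPTI-MEM were exposed to compounds in concentration-response for 18-24 h at 37 deg C. Viability was read by CellTiter-Fluor fluorescence (Ex 405/Em 525) after 30 min, before the luciferase read.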
% is set by controls: 0 for no effect and ±100 for the full control effect; potency is the fitted concentration of half-maximal effect.

Row | SMILES | Potency | activity change, negative = cytotoxicity
1 | Cn1nc(-c2ccc(Cl)cc2)nc2c(=O)n(C)c(=O)nc1-2 | active: 8.2 µM | 
2 | N#CCCN1C(=O)C2(OCCO2)c2ccccc21 |  | inactive: 0.53%
3 | Fc1ccc(CSc2nncn2NCc2ccccc2)cc1 | inconclusive: 32.6 µM [activator, partial curve, poor fit] | 
4 | CCOC(=O)c1cccc(NC(=O)CSc2nc3ccccc3c(=O)n2CCOC)c1 | inconclusive: 32.6 µM [falling, partial curve, poor fit] | 
5 | O=C(NC(=S)Nc1cc([N+](=O)[O-])ccc1O)c1ccc2c(c1)OCO2 | inconclusive: 23.1 µM [falling, single point] | 
6 | COc1ccc(CCNC(=O)c2nnn(-c3cc(C)cc(C)c3)c2N)cc1OC | inconclusive: 10.3 µM [falling, partial curve, poor fit] | 
7 | CCOC(=O)N1CCN(C(=O)CNC(=O)c2ccc(Br)o2)CC1 |  | inactive: 5.09%
8 | COc1cccc(NC(CNS(=O)(=O)c2ccc(Cl)cc2)c2ccccc2)c1 (configuration not stated) | inconclusive: 29.1 µM [falling, single point] | 
9 | Cc1ccc(S(=O)(=O)Nc2cccc3cccnc23)cc1 | inactive | 
10 | O=C(NCc1ccccc1)c1csc(-c2cccnc2)n1 |  | inactive: -3.99%
11 | Cn1nc(C(=O)NCc2ccc(F)cc2)c2ccccc2c1=O | inconclusive: 20.6 µM [activator, single point] | 
12 | C=CCNCC(=O)Nc1sc2c(c1C(=O)Nc1ccc(OC)cc1OC)CCC2 |  | inactive: -2.76%
13 | Cc1cc(C)cc(NC(=O)c2cnn(-c3ccc(C)c(C)c3)c2C2CCNCC2)c1 | inconclusive: 20.6 µM [falling, partial curve, poor fit] | 
14 | CC(C)c1ccc(C2CC(c3ccc(Br)cc3)=NN2C(N)=S)cc1 (configuration not stated) | inconclusive: 29.1 µM [falling, single point] | 
15 | CCn1c(=NC(=O)c2ccc(S(=O)(=O)N3CCCC3)cc2)sc2cc(Br)ccc21 |  | inactive: -2.15%
16 | Cc1ccc(C(C(=O)NC2CCCCC2)N(Cc2ccccc2)C(=O)Cc2c[nH]c3ccccc23)o1 (configuration not stated) | inconclusive: 29.1 µM [falling, single point] | 
17 | CC(C)c1ccc(NC(=O)c2ccc(Cn3nc(N4CCN(c5ccccc5)CC4)ccc3=O)o2)cc1 | inconclusive: 20.6 µM [falling, single point] | 
18 | C=CCSC1=C(C#N)C(c2ccccc2OCC)C(C#N)C(=O)N1 (configuration not stated) |  | inactive: 1.6%
19 | COc1ccc2c(c1)C(=NNc1ccc(C(=O)O)cc1)c1cc(OC)ccc1-2 | inconclusive: 20.6 µM [falling, single point] | 
20 | COc1ccc2c(c1)c(=O)oc1cc(OCC(=O)N3CCC(C)CC3)ccc12 | inconclusive: 2.91 µM [falling, partial curve, poor fit] | 
21 | Cc1cc(C)c(/C=N/NC(=O)c2nnn(-c3nonc3N)c2CN2CCC(C)CC2)c(C)c1 |  | inactive: -9.12%
22 | CCCOc1ccc(C(=O)NNC(=S)NC(=O)c2cccs2)cc1 |  | inactive: -19.4%
23 | O=S(=O)(Nc1cccc2cccnc12)c1cccs1 | inconclusive: 29.1 µM [falling, single point] | 

An excerpt of these results, in markdown:

| Row | SMILES | Potency | activity change, negative = cytotoxicity |
| --- | --- | --- | --- |
| 16 | Cc1ccc(C(C(=O)NC2CCCCC2)N(Cc2ccccc2)C(=O)Cc2c[nH]c3ccccc23)o1 (configuration not stated) | inconclusive: 29.1 µM [falling, single point] |  |
| 17 | CC(C)c1ccc(NC(=O)c2ccc(Cn3nc(N4CCN(c5ccccc5)CC4)ccc3=O)o2)cc1 | inconclusive: 20.6 µM [falling, single point] |  |
| 18 | C=CCSC1=C(C#N)C(c2ccccc2OCC)C(C#N)C(=O)N1 (configuration not stated) |  | inactive: 1.6% |
| 19 | COc1ccc2c(c1)C(=NNc1ccc(C(=O)O)cc1)c1cc(OC)ccc1-2 | inconclusive: 20.6 µM [falling, single point] |  |
| 20 | COc1ccc2c(c1)c(=O)oc1cc(OCC(=O)N3CCC(C)CC3)ccc12 | inconclusive: 2.91 µM [falling, partial curve, poor fit] |  |
| 21 | Cc1cc(C)c(/C=N/NC(=O)c2nnn(-c3nonc3N)c2CN2CCC(C)CC2)c(C)c1 |  | inactive: -9.12% |

Further records.

Row | SMILES | Potency | activity change, negative = cytotoxicity
24 | Nc1c(-c2ccccc2)c(CSc2nc3ccccc3[nH]2)nn1-c1ccc(Cl)cc1 | inconclusive: 29.1 µM [falling, partial curve, poor fit] | 
25 | COc1ccc(CCC(=O)Nc2ccc(OC)c(S(=O)(=O)N3CCCCC3)c2)cc1 | inconclusive: 6.51 µM [falling, partial curve, poor fit] | 
26 | CCCn1c(=O)c(C(=O)Nc2ccccc2C(=O)OC)c(O)c2ccccc21 |  | inactive: -7.11%
27 | Cc1ccc(NS(=O)(=O)c2ccc3[nH]c4c(c3c2)CCCCCC4)cc1 | inconclusive: 29.1 µM [falling, single point] | 
28 | CCc1ccc(C(=O)c2cn(CC(=O)NC3CCCCC3)c3nc(C)ccc3c2=O)cc1 | inconclusive: 16.4 µM [falling, partial curve, poor fit] | 
29 | COc1ccc(NS(=O)(=O)c2cc(Br)cc3c2N(C(=O)C2CC2)CC3)cc1OC |  | inactive: -11.6%
30 | O=S(=O)(c1ccccc1)N1CCN(C(=S)NC2CCCC2)CC1 | inconclusive: 29.1 µM [activator, partial curve, poor fit] | 
31 | COCCCNC(=O)/C(C#N)=C/c1c(N2CCN(c3ccccc3)CC2)nc2c(C)cccn2c1=O |  | inactive: 3.6%
32 | O=S(=O)(Nc1cc(F)ccc1F)c1ccc2[nH]c3c(c2c1)CCCC3 |  | inactive: 1.3%
33 | CCN(C(=O)c1cc([N+](=O)[O-])ccc1NCc1cccnc1)c1ccccc1 | inconclusive: 10.3 µM [falling, partial curve, poor fit] | 
34 | Cc1ccc(/C=N/Nc2nncn2N)cc1 |  | inactive: -2.84%
35 | CCOc1ccc(NC(=O)CCC(=O)N/N=C2\CCCc3ccccc32)cc1 |  | inactive: -9.15%
36 | CN(C)S(=O)(=O)c1cccc(NC(=O)COC(=O)c2ccc([N+](=O)[O-])o2)c1 |  | inactive: -17.8%
37 | COc1cc2c(C(=O)NCc3ccc(C)o3)cn(CC(C)C)c(=O)c2cc1OC |  | inactive: 9.38%
38 | O=C(Nc1sc2c(c1C(=O)O)CCCC2)c1cccc(Cl)c1 | inconclusive: 23.1 µM [falling, partial curve, poor fit] | 
39 | Cc1cc2c(s1)c1cnn(Cc3ccc(F)cc3Cl)c(=O)c1n2C |  | inactive: 0.499%
40 | CN(C)CC(O)COc1ccc(C(C)(C)c2ccc(OCC(O)CN(C)C)cc2)cc1 (configuration not stated) | inconclusive: 11.2 µM [falling, partial curve, poor fit] | 
41 | CC(C)c1ccc(NC(=O)CN2C(=O)COc3ccc(S(=O)(=O)N4CCCCC4)cc32)cc1 | inconclusive: 16.4 µM [falling, partial curve, poor fit] | 
42 | O=C1CCN(CCc2ccccc2)CCN1C(CSc1ccc(Br)cc1)Cc1ccccc1 (configuration not stated) | inconclusive: 20.6 µM [falling, partial curve, poor fit] | 
43 | COC(=O)CN1C(=S)N(Cc2ccccc2)C(=O)C1CC(=O)Nc1ccc(Br)cc1 (configuration not stated) | inconclusive: 29.1 µM [falling, partial curve, poor fit] | 
44 | CCOc1ccccc1-n1c(SCC(N)=O)nnc1-c1ccco1 | inconclusive: 4.61 µM [activator, partial curve, poor fit] | 
45 | N#Cc1nc(-c2ccc(Cl)cc2)oc1NCc1ccco1 |  | inactive: 13.2%
46 | Cc1ccc(S(=O)(=O)Nc2cccc3ncccc23)s1 | inconclusive: 29.1 µM [falling, single point] | 

Row | SMILES | Potency | activity change, negative = cytotoxicity
47 | COc1ccc(-c2cnn3c4c(c(C)nc23)CCN4C(C)C)cc1OC | inconclusive: 11.6 µM [falling, partial curve, poor fit] | 
48 | CCC(C)(C(=O)NC1CCCCC1)N(C(=O)C1CCC(=O)N1)c1ccccc1 (configuration not stated) | inconclusive: 18.4 µM [activator, single point] | 
49 | CC(=O)Nc1c(I)c(NC(C)=O)c(I)c(C(=O)O)c1I | inconclusive: 25.9 µM [falling, partial curve, poor fit] | 
50 | Cc1ccc(NC(=O)c2ccccc2NS(=O)(=O)c2ccc(Cl)s2)cc1S(=O)(=O)N1CCOCC1 | inconclusive: 29.1 µM [falling, single point] | 
51 | COc1ccc(CCNC(=O)C2CCCN(S(=O)(=O)c3ccc(F)cc3)C2)cc1OC (configuration not stated) | inconclusive: 29.1 µM [activator, single point] | 
52 | COCCNC(=O)CN(c1cc(C(F)(F)F)ccc1Cl)S(C)(=O)=O | inconclusive: 29.1 µM [activator, single point] | 
53 | O=C1CC(c2cc3c(cc2Br)OCO3)C2=C(CCCC2=O)N1 (configuration not stated) |  | inactive: -15.4%
54 | O=C(NCc1cccn1Cc1ccccc1)Nc1cccc(C(F)(F)F)c1 | inconclusive: 3.26 µM [falling, partial curve, poor fit] | 
55 | S=C(NNc1ccnc2cc(Cl)ccc12)Nc1ccc(Cl)cc1Cl | inconclusive: 20.6 µM [falling, single point] | 
56 | COc1cc(C(=O)NCCOc2cc(C)cc(C)c2)c(Br)c(OC)c1OC | inconclusive: 14.6 µM [falling, partial curve, poor fit] | 
57 | O=C(Nc1ccc(S(=O)(=O)N2CCCCC2)cc1)C1CCCO1 (configuration not stated) |  | inactive: 2.42%
58 | Cc1ccc(-c2nnc(-c3ccc(NC(=O)Cc4cccs4)cc3)o2)cc1 | active: 13 µM | 
59 | O=C1/C(=C\c2ccc([N+](=O)[O-])cc2)CS(=O)(=O)C/C1=C/c1ccc([N+](=O)[O-])cc1 | inconclusive: 18.4 µM [falling, single point] | 
60 | O=[N+]([O-])c1ccc(NN=Cc2ccco2)nc1 | inconclusive: 29.1 µM [falling, partial curve, poor fit] | 
61 | CCc1cc(C(N)=S)ccn1 | inconclusive: 23.1 µM [falling, partial curve, poor fit] | 
62 | CCOc1ccc(OCc2cccc(C(=O)Nc3ccc(CN4CCCCC4)cc3)c2)cc1 |  | inactive: 10.5%
63 | NC(=S)n1[nH]c(-c2ccc([N+](=O)[O-])cc2)c(N=Nc2cccc([N+](=O)[O-])c2)c1=O | inconclusive: 18.4 µM [falling, single point] | 
64 | CCC(NC(=O)c1cc(COc2cncc(Cl)c2)on1)c1ccc(C)cc1 (configuration not stated) | inconclusive: 2.91 µM [falling, partial curve, poor fit] | 
65 | CC(=O)c1c(C)oc2c(Br)cc(NS(=O)(=O)c3ccc(Br)cc3)cc12 |  | inactive: 4.66%
66 | Cn1cnc([N+](=O)[O-])c1Sc1nc(N)nc2c1ncn2C1CC(O)C(CO)O1 (configuration not stated) | inconclusive: 13 µM [falling, partial curve, poor fit] | 
67 | COc1ccc(OC)c(-c2nnc3n2N=C(c2ccc(OC)c(OCC4CC4)c2)CS3)c1 | inconclusive: 20.6 µM [falling, single point] | 
